Assay results from PubChem BioAssay AID590 (National Center for Advancing Translational Sciences (NCATS), 2007).
Out of some 59,000 compounds screened, about 6,500 (11%) were called active. Inconclusive results, whose numbers are uncertain, are shown with a selection of clear calls. Cut-off read from the data, not from the text of the source: active = max dye-equivalent concentration above about 10 nM; inconclusive = mostly about 1.1 nM to 9.6 nM; inactive = weaker than that.

Experiment: qHTS Assay for Spectroscopic Profiling in A350 Spectral Region
Conditions: Compound autofluorescence, 340/450 nm, Alexa 350 dye-equivalents; stronger effect = higher value

| Structure (SMILES) | max dye-equivalent concentration |
| --- | --- |
| COc1ccc(C2C(C(=O)Nc3cc(C)on3)c3ccccc3C(=O)N2C)cc1OC (centres undefined) | active: 130 nM |
| CN(C)S(=O)(=O)c1ccc(C(=O)Oc2cc(=O)[nH]c3ccccc23)cc1 | inconclusive: 1.3 nM |
| CCOc1cc(CO)ccc1OCC(=O)N1CCCCC1 | inactive |
| Cc1nc(C)c(C(=O)C2=C(O)C(=O)N(CCN(C)C)C2c2cccs2)s1 (centres undefined) | inconclusive: 2.1 nM |
| COc1ccccc1Nc1ncccc1C(=O)O | inconclusive: 4.4 nM |
| COC(=O)c1ccccc1NC(=O)CSc1nnc(COc2cccc(OC)c2)n1C | inconclusive: 1.7 nM |
| Clc1ccccc1-c1nccc(NCc2cccs2)n1 | inactive |
| Cn1c(CN2CCOCC2)nnc1SCC(=O)Nc1ccc2c(c1)OCCO2 | inactive |
| COc1ccc(-c2nnc3sc(-c4c(OC)cccc4OC)nn23)cc1 | inconclusive: 3 nM |
| CC(NC(=O)NC12CC3CC(CC(C3)C1)C2)C1CCCO1 (centres undefined) | inactive |
| CCCc1[nH]nc2c1C1(C(=O)N(CC)c3ccccc31)C(C#N)=C(N)O2 (centres undefined) | inconclusive: 9.8 nM |
| CN(CC(=O)N1CCN(C2CCCCC2)CC1)S(=O)(=O)c1cccc2nsnc12 | inconclusive: 7.6 nM |
| CCOC(=O)c1ccc(Oc2nc(NC)nc(OC)n2)cc1 | inconclusive: 1.3 nM |
| NC(=O)C1(N2CCCCC2)CCN(Cc2nc3ccccc3c(=O)[nH]2)CC1 | active: 10 nM |
| Nc1nonc1-n1nnc(C(=O)O)c1-c1cccs1 | inactive |
| N#Cc1c2c(c(-c3ccccc3)[nH]c1=O)CCCC2 | active: 20 nM |
| COCCNc1nc(-n2nc(C)cc2C)nc2sc3c(c12)CCCC3 | active: 1300 nM |
| CCSc1nnc(NC(=O)NC(CC)(C(F)(F)F)C(F)(F)F)s1 | inconclusive: 2.8 nM |
| O=C(c1cc(C(F)(F)F)cc(C(F)(F)F)c1)N1CCC2(CCCN(Cc3ccncc3)C2)CC1 | inactive |
| CCCCC(=O)Nc1ccc2c(c1)nc1n2CCSC1 | inconclusive: 1.9 nM |

Among those listed so far, 2 have a COOH group.

| Structure (SMILES) | max dye-equivalent concentration |
| --- | --- |
| COc1ccccc1Nc1ncccc1C(=O)O | inconclusive: 4.4 nM |
| Nc1nonc1-n1nnc(C(=O)O)c1-c1cccs1 | inactive |

(listing goes on)

| Structure (SMILES) | max dye-equivalent concentration |
| --- | --- |
| CC1(C)Cc2c(c(-c3ccco3)[nH]c(=O)c2C#N)CS1 | active: 40 nM |
| CCOC(=O)c1nn(-c2ccccc2C)c(=O)c(C#N)c1C | inactive |
| C=CCNc1ccc(F)c(F)c1N1CCCCCC1=O | inactive |
| CCc1nnc(NC(=O)c2ccc(S(=O)(=O)NCC(C)C)cc2)s1 | inactive |
| CCn1c(/N=C/c2c[nH]c3ccccc23)nc2ccccc21 | inactive |
| CCc1nnc(NC(=O)CSc2nnc(-c3ccoc3C)n2-c2cccc(C)c2)s1 | active: 11 nM |
| CC(C)C(c1nnnn1CCc1ccccc1)N1CCOCC1 (centres undefined) | inconclusive: 4.7 nM |
| COc1ccc(CNc2oc(COc3ccccc3Cl)nc2C#N)cc1 | inconclusive: 4.8 nM |
| CCCCCc1c(C)nc(NCc2ccccc2)[nH]c1=O | inconclusive: 1.2 nM |
| CCOCCc1c(O)nc(SCC(=O)NCc2ccco2)[nH]c1=O | inconclusive: 2.9 nM |
| O=C(NC1CCCC1)C1CCN(S(=O)(=O)N2CCCCC2)CC1 | inconclusive: 5.7 nM |
| CCOc1cc(C)c(S(=O)(=O)Nc2ccc(Cl)cn2)cc1C | inconclusive: 2 nM |
| COc1ccc(-c2cc(C(F)(F)F)nc(N3CCN(c4ccc(F)cc4)CC3)n2)cc1OC | inconclusive: 3 nM |
| CCCc1cc(C(N)=O)c(NC(=O)c2ccco2)s1 | inconclusive: 6.4 nM |
| O=C(NC12CC3CC(CC(C3)C1)C2)c1ccc(=O)oc1 | inconclusive: 7.5 nM |
| COc1ccccc1-c1noc(-c2cc(OC)c(OC)c(OC)c2)n1 | inconclusive: 1.2 nM |
| CC(=O)Nc1cccc(NC(=O)C2CCCN2C(=O)Nc2ccc(Cl)cc2)c1 (centres undefined) | inconclusive: 1.5 nM |
| COc1cc(C)nc(Nc2nc(C)c(C(C)=O)s2)n1 | inconclusive: 1.8 nM |
| Cc1ccc(-c2noc(CCC(=O)Nc3ccc4c(c3)OCO4)n2)cc1 | inactive |
| CN(C)CCCn1cnc2cc(Cl)c(Cl)cc21 | inactive |

Arranged by heavy-atom count (descending): some entries from above

| Structure (SMILES) | max dye-equivalent concentration |
| --- | --- |
| CCc1nnc(NC(=O)c2ccc(S(=O)(=O)NCC(C)C)cc2)s1 | inactive |
| CCCCCc1c(C)nc(NCc2ccccc2)[nH]c1=O | inconclusive: 1.2 nM |
| O=C(NC12CC3CC(CC(C3)C1)C2)c1ccc(=O)oc1 | inconclusive: 7.5 nM |

The listing continues.

| Structure (SMILES) | max dye-equivalent concentration |
| --- | --- |
| N#CC(C(=O)OC1CCCCC1)c1nc2ccccc2nc1N1CCOCC1 (centres undefined) | inactive |
| O=C(CCNS(=O)(=O)c1cccs1)NCc1ccco1 | inactive |
| CC(C)C1N=C2c3ccccc3N=C(SCC(=O)NCCc3ccc(S(N)(=O)=O)cc3)N2C1=O (centres undefined) | active: 340 nM |
| CCCNC(=O)N1CCN(S(=O)(=O)c2ccc(C)c(C)c2)CC1 | inactive |
| COC(=O)c1[nH]c2ccc(C)cc2c1NC(=O)CCN1CCN(Cc2ccc3c(c2)OCO3)CC1 | inconclusive: 7 nM |
| C=C(C)COc1ccc(-c2nc(N)ncc2Oc2ccccc2OC)c(O)c1 | inconclusive: 1.2 nM |
| Cc1ccc2c(c1)N[C@H](c1ccc(C(=O)O)cc1)c1cccn1-2 | active: 56 nM |
| CCCC(=O)Nc1cc(-c2nn(C)c(=O)c3ccccc23)ccc1N1CCCCC1 | inconclusive: 1.8 nM |
| CN(C)c1ncc2nc(-c3ccc(F)cc3)c(=O)n(-c3ccccc3)c2n1 | inconclusive: 8.9 nM |
| c1ccc(CNc2ncnc3ccc(-c4ccoc4)cc23)cc1 | active: 56 nM |
| CCCn1c(=O)c2ccccc2n2c(SCC(=O)/C(C#N)=C(\C)N)nnc12 | inactive |
| COc1ccc2c(=O)c3c(=O)n(Cc4ccco4)c(-c4ccccc4)nc3oc2c1 | inactive |
| CN1C[C@H](c2ccccc2)C(O)([C@]2(c3ccccc3)CN(C)C[C@@H](c3ccccc3)C2=O)[C@H](c2ccccc2)C1 (some centres undefined) | inconclusive: 1.3 nM |
| COc1ccccc1-c1cn(S(=O)(=O)c2ccc(F)cc2)nc1N | inactive |
| C(=N\n1cncn1)/c1ccc(N2CCOCC2)cc1 | active: 160 nM |
| CCc1ccc(NC(=O)c2cc(-c3ccc(OC)cc3)on2)cc1 | inconclusive: 1.8 nM |
| O=C(O)[C@@H]1CCCN1Cc1ccc2c(c1)OCO2 | inactive |
| CS(=O)(=O)N1CCC(c2noc(-c3ccc(C(F)(F)F)cc3)n2)CC1 | inconclusive: 1.5 nM |
| Cc1ccccc1C(=O)Nc1cccc(-c2nnc(SCC(=O)O)n2C)c1 | inconclusive: 9.1 nM |
